These results are taken from publication PMC5940854, “Nitrothiophene carboxamides, a novel narrow spectrum antibacterial series: Mechanism of action and Efficacy” (Scientific Reports, 2018).

The test system of the data set is E. coli strain BW25113. The data set is described as follows: Spontaneous resistance mutation frequency. It counts as cell-based. The note with it: for resistance frequency: E. coli BW25113, plates with 2x-16x MIC.

Take `O=C(Nc1nc(-c2ccc(F)c(F)c2)cs1)c1ccc([N+](=O)[O-])s1` [compound 11, N-(4-(3,4-Difluorophenyl)thiazol-2-yl)-5-nitrothiophene-2-carboxamide]: the resistance frequency is 10^−7. For the setting “agar plates with 4x MIC”, the “No. of colonies retrieved/ 10^9 CFU/mL” value stood at 58 and the Resistance mutation frequency is on record as 2.90E-08. In addition, where the note is “agar plates with 8x MIC”, the “No. of colonies retrieved/ 10^9 CFU/mL” value came to 85 and the Resistance mutation frequency was 4.25E-08. For the same compound, for the setting “agar plates with 16x MIC”, the “No. of colonies retrieved/ 10^9 CFU/mL” value is 16 and the Resistance mutation frequency is reported as 8.00E-09.
In the case of `O=C(Nc1nc(-c2ccc(F)cc2)cs1)c1ccc([N+](=O)[O-])s1` [compound 15, N-(4-(4-Fluorophenyl)thiazol-2-yl)-5-nitrothiophene-2-carboxamide], the resistance frequency was 10^−8. For the same compound, for the setting “agar plates with 2x MIC”, the “No. of colonies retrieved/ 10^9 CFU/mL” value is listed as 127 and the Resistance mutation frequency amounted to 6.35E-08. Moreover, where the note is “agar plates with 4x MIC”, the “No. of colonies retrieved/ 10^9 CFU/mL” value was found to be 79 and the Resistance mutation frequency amounted to 3.95E-08. Moreover, under “agar plates with 8x MIC”, the “No. of colonies retrieved/ 10^9 CFU/mL” value amounted to 48 and the Resistance mutation frequency is 2.40E-08. Where the note is “agar plates with 16x MIC”, the “No. of colonies retrieved/ 10^9 CFU/mL” value stood at 11 and the Resistance mutation frequency is 5.50E-09.
